Measured values as given in patent US20210238229A1, “PEPTIDE FOR DISEASE TREATMENT” (UNIVERSITY COLLEGE CORK - NATIONAL UNIVERSITY OF IRELAND, …, priority 2018, published 2021).
Not every detail of the peptide structures is certain; ends, links or a residue may be inferred. Where no end group is shown, it is not given here.

Test system: Intestinal preparations
Assay: Epithelial barrier study, intestinal preparations in Ussing chambers, pertussis toxin
Set-up: species or system wild-type mice
Conditions: pertussis toxin compromised barrier, peptide 10^−11 M

DRVYIH [Ang (1-6), DRVYIH]
protection of epithelial barrier function: can protect the endothelial and epithelial barrier function
